Measurements taken from publication doi:10.1101/659938.
Results are given in words; binding and its absence hold for the method and conditions named. Binding can be weak; no strength is given. Where a sequence is shown, tags or fusion partners need not be part of it.

T1: EGFP-Megator^1187-1655/WT (Drosophila) (UniProt A1Z8P9)
T1 sequence: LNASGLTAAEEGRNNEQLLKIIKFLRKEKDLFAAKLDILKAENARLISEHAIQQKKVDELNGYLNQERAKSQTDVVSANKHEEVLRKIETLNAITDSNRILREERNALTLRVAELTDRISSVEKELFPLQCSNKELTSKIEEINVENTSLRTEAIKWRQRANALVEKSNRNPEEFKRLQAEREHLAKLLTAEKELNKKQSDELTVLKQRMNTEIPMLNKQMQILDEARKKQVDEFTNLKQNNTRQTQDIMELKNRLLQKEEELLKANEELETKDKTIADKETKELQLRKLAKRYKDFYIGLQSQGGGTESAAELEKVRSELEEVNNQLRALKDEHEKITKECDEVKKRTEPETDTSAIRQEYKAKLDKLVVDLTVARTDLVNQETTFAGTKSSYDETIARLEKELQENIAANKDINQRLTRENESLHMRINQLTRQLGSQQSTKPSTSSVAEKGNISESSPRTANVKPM

B1: MBP-Megator^1187-1655/WT (domain or fragment, UniProt A1Z8P9 1187-1655)
chain: T1 sequence

Legend:
[1] = target: T1, EGFP-Megator^1187-1655/WT (Drosophila); assay: LARIAT
[2] = target: 6xHis-Mad1^1-493 (Drosophila); assay: pull-down

Row | Molecule | binding [1] | binding [2]
1 | Mad1 (Drosophila (endogenous in S2 cells)) | binds weakly | 
2 | B1 |  | binds
